This note sets out measurements from publication PMC12494553, “A unique gating mechanism revealed by the cryo-EM structure of monomeric ATP9A flippase” (The Journal of Biological Chemistry, 2025).

This test addresses human ATP9A (human) (UniProt O75110). Kind of test: cryo-EM structure; single-particle cryo-EM of purified ATP9A at 8 mg/ml in 0.06% glyco-diosgenin, 20 mM Mes-Tris pH 6.5, 200 mM NaCl, 5 mM MgCl2, with BeF (also AlF or AMPPCP samples); both purified.

These are yes or no findings as the source states them, for the method shown.

B1: human ATP9A (enzyme, UniProt O75110 38-1047)
chain: PRTVWLGHPEKRDQRYPRNVINNQKYNFFTFLPGVLFNQFKYFFNLYFLLLACSQFVPEMRLGALYTYWVPLGFVLAVTVIREAVEEIRCYVRDKEVNSQVYSRLTARGTVKVKSSNIQVGDLIIVEKNQRVPADMIFLRTSEKNGSCFLRTDQLDGETDWKLRLPVACTQRLPTAADLLQIRSYVYAEEPNIDIHNFVGTFTREDSDPPISESLSIENTLWAGTVVASGTVVGVVLYTGRELRSVMNTSNPRSKIGLFDLEVNCLTKILFGALVVVSLVMVALQHFAGRWYLQIIRFLLLFSNIIPISLRVNLDMGKIVYSWVIRRDSKIPGTVVRSSTIPEQLGRISYLLTDKTGTLTQNEMIFKRLHLGTVAYGLDSMDEVQSHIFSIYTQQSQDPPAQKGPTLTTKVRRTMSSRVHEAVKAIALCHNVTPVYESNGVTDQAEAEKQYEDSCRVYQASSPDEVALVQWTESVGLTLVGRDQSSMQLRTPGDQILNFTILQIFPFTYESKRMGIIVRDESTGEITFYMKGADVVMAGIVQYNDWLEEECGNMAREGLRVLVVAKKSLAEEQYQDFEARYVQAKLSVHDRSLKVATVIESLEMEMELLCLTGVEDQLQADVRPTLETLRNAGIKVWMLTGDKLETATCTAKNAHLVTRNQDIHVFRLVTNRGEAHLELNAFRRKHDCALVISGDSLEVCLKYYEYEFMELACQCPAVVCCRCAPTQKAQIVRLLQERTGKLTCAVGDGGNDVSMIQESDCGVGVEGKEGKQASLAADFSITQFKHLGRLLMVHGRNSYKRSAALSQFVIHRSLCISTMQAVFSSVFYFASVPLYQGFLIIGYSTIYTMFPVFSLVLDKDVKSEVAMLYPELYKDLLKGRPLSYKTFLIWVLISIYQGSTIMYGALLLFESEFVHIVAISFTSLILTELLMVALTIQTWHWLMTVAELLSLACYIASLVFLHEFIDVYFIATLSFLWKVSVITLVSCLPLYVLKYLRRRFSPPSYSKLTS
As for B1, the binding result is “no binding”.
